PubChem BioAssay AID504791 – Drosophila RNAi Screening Center, 2011

Assay: 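Genes whose knock-down strengthens or weakens small-RNA reporter silencing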 (primary screen)
System: Drosophila S2-derived reporter cells
Knock-down reagent: long dsRNA against Drosophila genes, about 150-250 ng dsRNA per well (siRNA assay); about 80-120 ng (miRNA assay)
Timing: about 5 days (siRNA assay); about 4 days (miRNA assay)
Conditions: copper sulfate induction of reporters: 25 µM (siRNA assay); 200 mM stated (miRNA assay), 1-2 days before reading
Read-out: 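Dual luciferase assay: Renilla to firefly signal ratio in each well, scaled to the mean ratio of its plate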
Direction: siRNA reporter hit score: higher = 3 marks a strong hit with raised ratio; -3 a strong hit with lowered ratio
Call rule: 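First-pass picks had plate-scaled ratios over 1.5 for the siRNA assay, over 1.6 for the miRNA assay, or under 0.6; two distinct dsRNAs had to score alike on retest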
The screen tested about 23,000 reagents; shown is a random part of those that have a named target and a result. Over the whole deposit, 199 (0.86%) are marked active. 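Plate-scaled ratios behind the calls are not deposited; printed light signals are raw; many rows marked increased or decreased are still called inactive.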 Reagents against one gene are numbered here. A plus sign joins genes that one reagent is predicted to hit. Reagent sequences are not shown.

no.	gene	dsRNA no.	siRNA reporter hit score	stable siRNA reporter change	stable assay Renilla, run 1 (luminescence)	stable assay firefly, run 1 (luminescence)	activity call
1	Lcp65Ag3 + Lcp65Ag2 + Lcp65Ag1	1			5719	4.63e5	inactive
2	Lcp65Ag3 + Lcp65Ag2 + Lcp65Ag1	2			6408	4.20e5	inactive
3	CG31752	1			3875	3.04e5	inactive
4	CG33230	1			12196	5.90e5	inactive
5	CG13795	1			7519	5.59e5	inactive
6	ppan	1			7420	4.51e5	inactive
7	CG5478	1			7559	4.71e5	inactive
8	Ets65A	1			6171	4.02e5	inactive
9	Ets65A	2			7686	4.49e5	inactive
10	Ets65A	3			7759	6.44e5	inactive
11	CG1847	1			8053	4.17e5	inactive
12	CG42346	1			4716	3.23e5	inactive
13	CG42346	2			6427	4.84e5	inactive
14	Coq6	1			1.29e5	1.55e5	inactive
15	Rpn11	1		reporter ratio raised past the hit cutoff	4604	1.59e5	active
16	CG34445	1			4071	4.22e5	inactive
17	Zw	1			7020	4.95e5	inactive
18	AdamTS-A	1			7868	5.40e5	inactive
19	AdamTS-A	2			7238	4.32e5	inactive
20	CG33278	1			5766	4.45e5	inactive
21	Sp1	1			5722	4.27e5	inactive
22	Sp1	2			5355	3.85e5	inactive
23	Ldaf1	1			7398	5.08e5	inactive
24	CG15080	1			5331	4.01e5	inactive
25	Gem4b + Gem4c	1			6236	3.53e5	inactive
26	Pfrx	1			5607	3.56e5	inactive
27	Pfrx	2			5408	4.03e5	inactive
28	CG10013	1			6967	2.80e5	inactive
29	IntS4	1	-3		17543	1.11e6	inactive
30	CG13984	1			7282	4.54e5	inactive
31	Amnionless	1			6984	3.91e5	inactive
32	CG13532	1			6063	3.57e5	inactive
33	CG17977	1			7018	4.40e5	inactive
34	CG8314	1			7829	2.96e5	inactive
